# Reference: the supplement of paper PMC8728848
# The list shows a part of the results.
# B1: BSR4 (Toxoplasma gondii), Q95NL6 (protein)
# chain: MVMMGSMQQRRGGLRSNARQLLAVCMSGVVFFSSGQAVADNLLEGLLHRTLQQQVEVTSRLTVAGSDAKCDFFTPATQDSPPVSGSLTLSKGRMTATFECSATQALSISTIPTNIEQNVCDPKKTTNGTVCQFGANGSAGTEVTLKDLLETDRIVNWKVNEQREESNKSQKWSLELHNEDLPLTDKAFVVGCQATSAARGTESGKTAACKLTVNVEARASSLAENNVVTCAYGKGSNPNPVEVEMSTEKNTLTINCGSDGSLQPTTYAEEYCVADSKDVNRCSTTRFVEIFPKFLKSWWVTETQKRTSATLTIPQTDLPEADQQFLVGCVPKKTAPEDPKKDKESGTETGAPTSCTVLVTVKAASSASHASPTVQILAAASSAAA
# Assays:
# Experiment in all cases: glycan array binding signal (z-score within array); higher = stronger binding
# Conditions in all cases: glycan notation: IUPAC condensed, linker removed
# [1] = biological target: Gal(b1-4)GlcNAc(b1-2)Man(a1-6)[GlcNAc(b1-2)Man(a1-3)]Man(b1-4)GlcNAc(b1-4)GlcNAc
# Procedure, shortened: (§1)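 The binding signal is a Z-score computed within each array. Data were drawn from 3228 arrays in the Consortium for Functional Glycomics database, restricted to those with a known protein sequence. Scores were averaged over arrays of the same protein sequence at different concentrations or buffers, and over linkers, and negative values can be taken as non-binding.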
# [2] = biological target: Gal(b1-4)GlcNAc(b1-2)Man(a1-6)[Man(a1-3)]Man(b1-4)GlcNAc(b1-4)GlcNAc
# Procedure, shortened: as §1
# [3] = biological target: Gal(b1-4)GlcNAc(b1-2)[Gal(b1-4)GlcNAc(b1-4)]Man(a1-3)[Gal(b1-4)GlcNAc(b1-2)Man(a1-6)]Man(b1-4)GlcNAc(b1-4)GlcNAc
# Procedure, shortened: as §1
# [4] = biological target: Gal(b1-4)GlcNAc(b1-2)[Gal(b1-4)GlcNAc(b1-4)]Man(a1-3)[Gal(b1-4)GlcNAc(b1-2)[Gal(b1-4)GlcNAc(b1-6)]Man(a1-6)]Man(b1-4)GlcNAc(b1-4)GlcNAc
# Procedure, shortened: as §1
# [5] = biological target: Gal(b1-4)GlcNAc(b1-3)Gal(b1-3)GlcNAc
# Procedure, shortened: as §1
# [6] = biological target: Gal(b1-4)GlcNAc(b1-3)Gal(b1-4)Glc
# Procedure, shortened: as §1
# [7] = biological target: Gal(b1-4)GlcNAc(b1-3)Gal(b1-4)GlcNAc
# Procedure, shortened: as §1
# [8] = biological target: Gal(b1-4)GlcNAc(b1-3)Gal(b1-4)GlcNAc(b1-3)Gal(b1-4)GlcNAc
# Procedure, shortened: as §1
# [9] = biological target: Gal(b1-4)GlcNAc(b1-3)Gal(b1-4)[Fuc(a1-3)]GlcNAc(b1-3)Gal(b1-4)[Fuc(a1-3)]GlcNAc
# Procedure, shortened: as §1
# [10] = biological target: Gal(b1-4)GlcNAc(b1-3)GalNAc
# Procedure, shortened: as §1
# [11] = biological target: Gal(b1-4)GlcNAc(b1-3)[Gal(b1-4)GlcNAc(b1-6)]Gal(b1-4)GlcNAc
# Procedure, shortened: as §1
# [12] = biological target: Gal(b1-4)GlcNAc(b1-3)[Gal(b1-4)GlcNAc(b1-6)]GalNAc
# Procedure, shortened: as §1
# [13] = biological target: Gal(b1-4)GlcNAc(b1-3)[GlcNAc(b1-6)]Gal(b1-4)GlcNAc
# Procedure, shortened: as §1
# [14] = biological target: Gal(b1-4)GlcNAc(b1-6)Gal(b1-4)GlcNAc
# Procedure, shortened: as §1
# [15] = biological target: Gal(b1-4)GlcNAc(b1-6)GalNAc
# Procedure, shortened: as §1
# [16] = biological target: Gal(b1-4)GlcNAc(b1-6)[Gal(b1-3)]GalNAc
# Procedure, shortened: as §1
# Gal3S(b1-3)GalNAc = biological target: Gal3S(b1-3)GalNAc
# Procedure, shortened: as §1
# Gal3S(b1-3)GlcNAc = biological target: Gal3S(b1-3)GlcNAc
# Procedure, shortened: as §1
# [17] = biological target: Gal3S(b1-3)[Fuc(a1-4)]GlcNAc
# Procedure, shortened: as §1
# Gal3S(b1-4)Glc = biological target: Gal3S(b1-4)Glc
# Procedure, shortened: as §1
# Gal3S(b1-4)Glc6S = biological target: Gal3S(b1-4)Glc6S
# Procedure, shortened: as §1
# Gal3S(b1-4)GlcNAc = biological target: Gal3S(b1-4)GlcNAc
# Procedure, shortened: as §1
# Gal3S(b1-4)GlcNAc6S = biological target: Gal3S(b1-4)GlcNAc6S
# Procedure, shortened: as §1
# [18] = biological target: Gal3S(b1-4)[Fuc(a1-3)]Glc
# Procedure, shortened: as §1
# [19] = biological target: Gal3S(b1-4)[Fuc(a1-3)]Glc6S
# Procedure, shortened: as §1
# Gal3S4S(b1-4)GlcNAc = biological target: Gal3S4S(b1-4)GlcNAc
# Procedure, shortened: as §1
# Gal3S6S(b1-4)GlcNAc = biological target: Gal3S6S(b1-4)GlcNAc
# Procedure, shortened: as §1
# Gal3S6S(b1-4)GlcNAc6S = biological target: Gal3S6S(b1-4)GlcNAc6S
# Procedure, shortened: as §1
# Gal4S(b1-4)GlcNAc = biological target: Gal4S(b1-4)GlcNAc
# Procedure, shortened: as §1
# Gal4S6S(b1-4)GlcNAc = biological target: Gal4S6S(b1-4)GlcNAc
# Procedure, shortened: as §1
# Gal6S(b1-4)Glc = biological target: Gal6S(b1-4)Glc
# Procedure, shortened: as §1
# Gal6S(b1-4)Glc6S = biological target: Gal6S(b1-4)Glc6S
# Procedure, shortened: as §1
# Gal6S(b1-4)GlcNAc = biological target: Gal6S(b1-4)GlcNAc
# Procedure, shortened: as §1
# Gal6S(b1-4)GlcNAc6S = biological target: Gal6S(b1-4)GlcNAc6S
# Procedure, shortened: as §1
# GalNAc(a1-3)Gal = biological target: GalNAc(a1-3)Gal
# Procedure, shortened: as §1
# GalNAc(a1-3)GalNAc = biological target: GalNAc(a1-3)GalNAc
# Procedure, shortened: as §1
# [20] = biological target: GalNAc(a1-3)GalNAc(a1-3)Gal(a1-4)Gal(b1-4)GlcNAc
# Procedure, shortened: as §1
# GalNAc(b1-3)Gal = biological target: GalNAc(b1-3)Gal
# Procedure, shortened: as §1
binder,measurement,setting,value
B1,glycan array binding signal (z-score),[1],-0.121
same,glycan array binding signal (z-score),[2],-0.142
same,glycan array binding signal (z-score),[3],-0.451
same,glycan array binding signal (z-score),[4],-0.468
same,glycan array binding signal (z-score),[5],0.288
same,glycan array binding signal (z-score),[6],-0.295
same,glycan array binding signal (z-score),[7],-0.243
same,glycan array binding signal (z-score),[8],-0.265
same,glycan array binding signal (z-score),[9],-0.462
same,glycan array binding signal (z-score),[10],0.454
same,glycan array binding signal (z-score),[11],-0.712
same,glycan array binding signal (z-score),[12],-0.178
same,glycan array binding signal (z-score),[13],0.261
same,glycan array binding signal (z-score),[14],-0.306
same,glycan array binding signal (z-score),[15],0.205
same,glycan array binding signal (z-score),[16],-0.415
same,glycan array binding signal (z-score),Gal3S(b1-3)GalNAc,-0.111
same,glycan array binding signal (z-score),Gal3S(b1-3)GlcNAc,-0.131
same,glycan array binding signal (z-score),[17],5.04
same,glycan array binding signal (z-score),Gal3S(b1-4)Glc,-0.469
same,glycan array binding signal (z-score),Gal3S(b1-4)Glc6S,-0.039
same,glycan array binding signal (z-score),Gal3S(b1-4)GlcNAc,-0.116
same,glycan array binding signal (z-score),Gal3S(b1-4)GlcNAc6S,0.22
same,glycan array binding signal (z-score),[18],0.054
same,glycan array binding signal (z-score),[19],0.993
same,glycan array binding signal (z-score),Gal3S4S(b1-4)GlcNAc,-0.074
same,glycan array binding signal (z-score),Gal3S6S(b1-4)GlcNAc,0.975
same,glycan array binding signal (z-score),Gal3S6S(b1-4)GlcNAc6S,0.358
same,glycan array binding signal (z-score),Gal4S(b1-4)GlcNAc,-0.451
same,glycan array binding signal (z-score),Gal4S6S(b1-4)GlcNAc,0.705
same,glycan array binding signal (z-score),Gal6S(b1-4)Glc,0.335
same,glycan array binding signal (z-score),Gal6S(b1-4)Glc6S,0.41
same,glycan array binding signal (z-score),Gal6S(b1-4)GlcNAc,0.345
same,glycan array binding signal (z-score),Gal6S(b1-4)GlcNAc6S,0.245
same,glycan array binding signal (z-score),GalNAc(a1-3)Gal,-0.538
same,glycan array binding signal (z-score),GalNAc(a1-3)GalNAc,0.038
same,glycan array binding signal (z-score),[20],-0.674
same,glycan array binding signal (z-score),GalNAc(b1-3)Gal,-0.368

# Reprinted at random: 2 entries already listed, in no set order.
binder,measurement,setting,value
B1,glycan array binding signal (z-score),Gal3S(b1-3)GalNAc,-0.111
same,glycan array binding signal (z-score),Gal3S6S(b1-4)GlcNAc,0.975
